Results published in publication PMC10756686.
These are yes or no findings as the source states them, for the method shown. In cells and extracts the contact can be indirect. Some results given as binding are weak or reduced against the parent protein; the word gives no strength. For part of these data: Where a sequence is shown, tags or fusion partners need not be part of it.

The chains behind the UniProt entries cited, without tags or fusion partners. Where a name states a change or a piece, a line headed by the entry shows the natural chain unless it says otherwise.
UniProt Q9NSV4: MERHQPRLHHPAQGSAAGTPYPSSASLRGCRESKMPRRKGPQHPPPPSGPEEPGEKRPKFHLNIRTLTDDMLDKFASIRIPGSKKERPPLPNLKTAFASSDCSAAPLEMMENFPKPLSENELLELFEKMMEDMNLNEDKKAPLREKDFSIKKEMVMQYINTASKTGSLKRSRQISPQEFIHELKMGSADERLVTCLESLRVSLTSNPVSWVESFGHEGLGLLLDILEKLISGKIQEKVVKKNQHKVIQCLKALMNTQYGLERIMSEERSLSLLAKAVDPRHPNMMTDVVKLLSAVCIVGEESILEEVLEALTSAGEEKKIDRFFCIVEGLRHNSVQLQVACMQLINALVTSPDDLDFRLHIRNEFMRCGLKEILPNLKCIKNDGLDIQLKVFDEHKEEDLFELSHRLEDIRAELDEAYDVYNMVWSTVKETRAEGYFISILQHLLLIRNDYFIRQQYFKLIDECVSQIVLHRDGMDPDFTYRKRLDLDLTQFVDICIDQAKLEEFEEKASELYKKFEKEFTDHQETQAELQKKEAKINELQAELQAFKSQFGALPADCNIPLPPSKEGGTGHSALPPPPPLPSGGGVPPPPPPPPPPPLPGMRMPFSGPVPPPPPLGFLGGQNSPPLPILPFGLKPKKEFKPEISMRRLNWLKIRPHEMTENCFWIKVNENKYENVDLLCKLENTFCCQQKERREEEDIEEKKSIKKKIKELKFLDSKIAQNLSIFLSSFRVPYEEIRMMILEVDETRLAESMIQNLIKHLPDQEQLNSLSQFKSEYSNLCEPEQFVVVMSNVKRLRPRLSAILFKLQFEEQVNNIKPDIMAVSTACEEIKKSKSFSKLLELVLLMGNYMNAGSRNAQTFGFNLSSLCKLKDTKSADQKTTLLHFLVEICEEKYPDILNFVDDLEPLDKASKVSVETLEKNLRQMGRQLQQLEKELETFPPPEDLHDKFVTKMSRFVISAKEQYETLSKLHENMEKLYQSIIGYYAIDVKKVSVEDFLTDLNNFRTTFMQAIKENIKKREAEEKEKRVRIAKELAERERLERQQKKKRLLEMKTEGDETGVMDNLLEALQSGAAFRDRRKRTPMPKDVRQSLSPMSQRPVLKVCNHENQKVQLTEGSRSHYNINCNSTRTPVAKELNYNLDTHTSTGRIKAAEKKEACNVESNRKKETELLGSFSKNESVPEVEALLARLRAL
UniProt O08808: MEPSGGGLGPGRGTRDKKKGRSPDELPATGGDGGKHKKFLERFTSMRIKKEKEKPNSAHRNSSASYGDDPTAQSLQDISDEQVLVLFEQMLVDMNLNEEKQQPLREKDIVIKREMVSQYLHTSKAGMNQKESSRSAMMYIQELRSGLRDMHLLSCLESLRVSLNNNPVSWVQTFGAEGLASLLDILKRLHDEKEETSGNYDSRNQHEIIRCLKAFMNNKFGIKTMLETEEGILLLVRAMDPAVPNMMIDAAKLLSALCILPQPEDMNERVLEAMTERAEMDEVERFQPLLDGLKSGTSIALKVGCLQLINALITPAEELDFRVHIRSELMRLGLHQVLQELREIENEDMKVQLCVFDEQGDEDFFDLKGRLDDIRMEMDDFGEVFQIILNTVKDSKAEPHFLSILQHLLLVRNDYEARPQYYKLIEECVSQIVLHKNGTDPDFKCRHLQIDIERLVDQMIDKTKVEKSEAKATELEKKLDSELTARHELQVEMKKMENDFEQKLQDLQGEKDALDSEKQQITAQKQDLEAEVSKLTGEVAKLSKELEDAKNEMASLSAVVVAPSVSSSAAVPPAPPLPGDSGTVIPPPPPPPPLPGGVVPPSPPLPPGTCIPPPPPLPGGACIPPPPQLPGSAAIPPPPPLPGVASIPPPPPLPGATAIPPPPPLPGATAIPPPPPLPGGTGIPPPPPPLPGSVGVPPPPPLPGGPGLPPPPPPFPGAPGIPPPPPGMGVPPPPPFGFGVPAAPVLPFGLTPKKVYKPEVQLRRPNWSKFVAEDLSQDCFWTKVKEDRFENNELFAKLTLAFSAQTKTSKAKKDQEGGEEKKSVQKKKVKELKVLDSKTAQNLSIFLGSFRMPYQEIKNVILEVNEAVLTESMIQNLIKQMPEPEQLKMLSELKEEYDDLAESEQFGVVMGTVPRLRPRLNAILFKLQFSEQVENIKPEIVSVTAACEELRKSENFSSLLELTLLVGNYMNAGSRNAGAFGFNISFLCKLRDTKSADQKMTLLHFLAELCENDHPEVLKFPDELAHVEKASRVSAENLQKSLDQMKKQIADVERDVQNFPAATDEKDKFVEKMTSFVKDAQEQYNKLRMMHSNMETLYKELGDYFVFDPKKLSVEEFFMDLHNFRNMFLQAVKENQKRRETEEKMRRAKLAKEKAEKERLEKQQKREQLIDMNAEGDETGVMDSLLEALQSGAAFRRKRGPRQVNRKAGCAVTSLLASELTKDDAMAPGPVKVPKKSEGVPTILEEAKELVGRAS
UniProt O60610: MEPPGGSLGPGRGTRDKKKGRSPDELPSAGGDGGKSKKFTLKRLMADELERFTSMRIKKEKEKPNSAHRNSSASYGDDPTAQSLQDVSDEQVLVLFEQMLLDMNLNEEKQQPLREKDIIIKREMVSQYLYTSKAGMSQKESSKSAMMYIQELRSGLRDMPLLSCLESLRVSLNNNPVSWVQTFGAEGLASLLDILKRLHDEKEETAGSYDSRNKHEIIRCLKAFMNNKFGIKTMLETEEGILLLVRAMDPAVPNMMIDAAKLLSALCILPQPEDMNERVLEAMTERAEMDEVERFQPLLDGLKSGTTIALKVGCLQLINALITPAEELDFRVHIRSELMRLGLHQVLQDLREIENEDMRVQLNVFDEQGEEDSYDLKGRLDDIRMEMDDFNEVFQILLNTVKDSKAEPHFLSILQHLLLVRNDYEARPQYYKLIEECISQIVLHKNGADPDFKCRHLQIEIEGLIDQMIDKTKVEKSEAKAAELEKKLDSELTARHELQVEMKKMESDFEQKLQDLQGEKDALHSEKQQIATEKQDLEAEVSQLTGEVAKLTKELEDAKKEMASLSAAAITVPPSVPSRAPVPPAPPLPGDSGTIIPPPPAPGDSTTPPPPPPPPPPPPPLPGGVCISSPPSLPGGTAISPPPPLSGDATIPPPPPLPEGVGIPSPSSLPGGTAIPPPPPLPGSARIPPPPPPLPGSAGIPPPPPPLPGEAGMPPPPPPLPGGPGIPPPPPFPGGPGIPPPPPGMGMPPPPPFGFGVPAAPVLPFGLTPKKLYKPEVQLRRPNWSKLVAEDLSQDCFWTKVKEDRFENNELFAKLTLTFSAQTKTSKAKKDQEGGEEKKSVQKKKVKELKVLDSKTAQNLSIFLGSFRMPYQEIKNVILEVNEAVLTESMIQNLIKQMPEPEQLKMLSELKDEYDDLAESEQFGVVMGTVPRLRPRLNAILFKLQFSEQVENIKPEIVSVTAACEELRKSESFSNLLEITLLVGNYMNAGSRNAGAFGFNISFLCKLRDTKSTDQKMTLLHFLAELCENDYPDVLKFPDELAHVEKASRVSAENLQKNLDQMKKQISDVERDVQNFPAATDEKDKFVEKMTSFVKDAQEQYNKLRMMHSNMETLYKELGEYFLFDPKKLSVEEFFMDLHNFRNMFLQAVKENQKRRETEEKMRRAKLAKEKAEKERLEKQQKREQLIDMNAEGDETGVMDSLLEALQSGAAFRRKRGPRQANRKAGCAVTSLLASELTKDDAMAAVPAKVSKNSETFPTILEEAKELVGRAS

Key:
[1] = molecular target: endogenous mDia2 (human (endogenous in 293T and K562)) (UniProt Q9NSV4); test: co-IP; endogenous proteins in 293T lysate (1-1.5mg total protein), 2.5μg anti-DIAPH1 or anti-DIAPH3 at 4°C overnight, protein A/G magnetic beads; Western blot; also after serum starvation for 6hr with or without 20% serum added back
[2] = molecular target: HA-tagged murine mDia1 full length (murine) (UniProt O08808); test: co-IP; 293T cells transiently transfected with HA-tagged mDia1 and FLAG- or 3xFLAG-tagged mDia2 constructs (full length or truncated); lysate in IP buffer (50mM HEPES pH7.6, 250mM NaCl, 5mM EDTA, 0.1% NP40) on anti-HA or anti-FLAG magnetic beads, 4°C overnight, 6 washes; Western blot
[3] = molecular target: T1, mDia2 DAD domain (amino acids 1033-1171) tagged with C-terminal 3xFLAG (murine) (UniProt Q9Z207); test: co-IP; 293T cells expressing HA-tagged mDia1 construct (stably, by the legend) transfected with mDia2 full length or DAD with C-terminal 3xFLAG; anti-FLAG immunoprecipitation, immunoblot
T1 sequence: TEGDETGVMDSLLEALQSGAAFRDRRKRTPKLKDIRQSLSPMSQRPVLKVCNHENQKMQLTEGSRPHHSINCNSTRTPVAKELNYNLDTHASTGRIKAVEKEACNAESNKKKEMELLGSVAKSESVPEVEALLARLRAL

[4] = molecular target: mDia2-3xFLAG full length (murine) (UniProt Q9Z207); test: as above
[5] = molecular target: GST-mDia2 full-length (murine) (UniProt Q9Z207); test: pull-down; GST fusion proteins on glutathione agarose incubated with lysate of E. coli expressing His-mDia1 constructs, 4°C 2 hours; 5 washes with NETN100 (100μM EDTA, 20mM Tris, 100mM NaCl); Western blot; only the target purified
[6] = molecular target: T2, GST-mDia2-DAD (murine) (UniProt Q9Z207); test: as above
T2 sequence: T1 sequence

[7] = molecular target: endogenous mDia1 (human (endogenous in 293T and K562)) (UniProt O60610); test: co-IP; endogenous proteins in 293T lysate (1-1.5mg total protein), 2.5μg anti-DIAPH1 or anti-DIAPH3 at 4°C overnight, protein A/G magnetic beads; Western blot; also after serum starvation for 6hr with or without 20% serum added back
[8] = molecular target: HA-tagged murine mDia1 full length (murine) (UniProt O08808); test: co-IP; 293T cells overexpressing HA-mDia1 or mDia2-3xFLAG; anti-HA or anti-FLAG magnetic beads; endogenous partner detected by Western blot; also after IMM-01 or SMIFH2 for 24 hours
[9] = molecular target: endogenous mDia1 (human (endogenous in 293T and K562)) (UniProt O60610); test: co-IP; endogenous proteins in K562 cells, anti-mDia1 antibody; Western blot
[10] = molecular target: FLAG-tagged murine mDia2 (murine) (UniProt Q9Z207); test: co-IP; 293T cells transiently transfected with HA-tagged mDia1 and FLAG- or 3xFLAG-tagged mDia2 constructs (full length or truncated); lysate in IP buffer (50mM HEPES pH7.6, 250mM NaCl, 5mM EDTA, 0.1% NP40) on anti-HA or anti-FLAG magnetic beads, 4°C overnight, 6 washes; Western blot
[11] = molecular target: T1, mDia2 DAD domain (amino acids 1033-1171) tagged with C-terminal 3xFLAG (murine); test: as above
[12] = molecular target: mDia2-3xFLAG full length (murine) (UniProt Q9Z207); test: as above
[13] = molecular target: HA-tagged mDia1 GBD-DID domain (amino acids 1-567) (murine) (UniProt O08808); test: as above

## endogenous mDia1 (from UniProt O60610 1-1272)
[1]
  binding: binds

## FLAG-tagged murine mDia2 (from UniProt Q9Z207 1-1171)
[2]
  binding: binds

## HA-tagged mDia1 GBD-DID domain (amino acids 1-567) (from UniProt O08808 1-567) (domain or fragment)
[3]
  binding: binds
[4]
  binding: binds

## His-mDia1-GBD-DID (from UniProt O08808 1-567) (domain or fragment)
[5]
  binding: binds
[6]
  binding: binds

## His-mDia1 full-length (from UniProt O08808 1-1255)
[5]
  binding: binds
[6]
  binding: binds

## endogenous mDia2 (from UniProt Q9NSV4 1-1193)
[7]
  binding: binds
[8]
  binding: binds
[9]
  binding: binds

## HA-tagged murine mDia1 full length (from UniProt O08808 1-1255)
[10]
  binding: binds
[11]
  binding: binds
[12]
  binding: binds

## mDia2-3xFLAG full length (from UniProt Q9Z207 1-1171)
[13]
  binding: binds
